The record followed here is article PMC11122021.

The chains behind the UniProt entries cited, without tags or fusion partners. Where a name states a change or a piece, a line headed by the entry shows the natural chain unless it says otherwise.
UniProt O82307: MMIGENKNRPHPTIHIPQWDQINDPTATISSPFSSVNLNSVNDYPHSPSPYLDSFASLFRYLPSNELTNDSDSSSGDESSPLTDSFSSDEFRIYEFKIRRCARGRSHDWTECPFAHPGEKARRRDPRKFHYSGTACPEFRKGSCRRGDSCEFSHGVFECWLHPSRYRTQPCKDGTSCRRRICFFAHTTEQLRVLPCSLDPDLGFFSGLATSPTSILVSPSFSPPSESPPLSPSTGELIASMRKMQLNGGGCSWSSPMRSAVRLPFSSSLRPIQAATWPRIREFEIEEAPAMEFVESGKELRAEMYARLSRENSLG

The target of the data set is GST-TZF1 (Arabidopsis thaliana) (UniProt O82307). The data set is described as follows: EMSA. As to conditions: most complex did not enter the gel; 20 mM HEPES-KOH pH 7.5, 50 mM NaCl, 5 uM ZnCl2, 4 mM MgCl2 (binding buffer, mixed 1:1 with 20 mM Tris-HCl pH 8, 50 mM NaCl, 1 mM DTT in direct EMSA); recombinant protein; protein details: GST; label: 5'-32P (direct EMSA), unlabeled as competitor; probe letters rebuilt from the primers and the genome; part of a longer molecule.

For at least one entry, the source does not settle the construct or the ends of the probe.

Regarding “CCUUCUGGUCCAUCUGACUCUGCCUAACCCACCAUCUAGUAACGCAACGUCCAUUUUAUAUUUGAUUUUUUUUCCUUCCUUCUUCAACUCCGGGCUAAUGAUCUGAUCUCAAAUUGUAUAAAAUCGUUGCUGGAUUUUUUCUAUUUUGGGUGUGGGUUUGAUAUAUUUUGUCAACUGAGUUUCCACUU [ACA11 F4]”, the binding result is “binds”.
